# Data reported in the supplement of paper PMC12819154, “High-throughput peptide-centric local stability assay extends protein–ligand identification to membrane proteins, tissues and bacteria” (Nature Structural & Molecular Biology, 2025).
# Sequences of proteins named here, by UniProt entry; tags and fusion partners are left off. A change or cut given only in a name is not applied to a line headed by its entry.
# UniProt P52127: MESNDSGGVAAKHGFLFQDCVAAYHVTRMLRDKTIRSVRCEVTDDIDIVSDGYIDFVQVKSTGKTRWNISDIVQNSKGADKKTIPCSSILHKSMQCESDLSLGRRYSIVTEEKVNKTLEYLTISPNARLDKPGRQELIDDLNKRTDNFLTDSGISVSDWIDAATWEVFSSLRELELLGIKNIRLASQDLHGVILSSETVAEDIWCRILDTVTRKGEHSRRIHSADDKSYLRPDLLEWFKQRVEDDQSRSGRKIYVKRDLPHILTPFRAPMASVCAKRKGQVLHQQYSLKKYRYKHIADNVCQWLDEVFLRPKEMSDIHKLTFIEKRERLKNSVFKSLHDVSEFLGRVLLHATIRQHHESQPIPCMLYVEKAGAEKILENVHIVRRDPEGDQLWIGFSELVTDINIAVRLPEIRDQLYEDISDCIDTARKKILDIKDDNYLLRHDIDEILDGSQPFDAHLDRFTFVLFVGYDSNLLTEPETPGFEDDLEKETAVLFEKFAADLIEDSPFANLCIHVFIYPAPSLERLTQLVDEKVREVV
# UniProt P75830: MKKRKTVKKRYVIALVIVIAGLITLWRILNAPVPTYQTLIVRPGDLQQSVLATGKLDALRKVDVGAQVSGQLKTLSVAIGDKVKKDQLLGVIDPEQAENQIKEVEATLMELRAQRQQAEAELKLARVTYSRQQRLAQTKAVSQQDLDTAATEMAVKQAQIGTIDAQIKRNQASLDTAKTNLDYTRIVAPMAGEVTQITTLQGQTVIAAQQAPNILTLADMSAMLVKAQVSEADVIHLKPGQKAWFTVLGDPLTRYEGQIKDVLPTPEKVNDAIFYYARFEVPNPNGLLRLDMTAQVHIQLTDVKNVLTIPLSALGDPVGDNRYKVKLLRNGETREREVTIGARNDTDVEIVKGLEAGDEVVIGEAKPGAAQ
# UniProt P64602: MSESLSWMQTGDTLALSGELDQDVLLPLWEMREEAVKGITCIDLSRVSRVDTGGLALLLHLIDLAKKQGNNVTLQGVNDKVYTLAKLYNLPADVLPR
# UniProt P75867: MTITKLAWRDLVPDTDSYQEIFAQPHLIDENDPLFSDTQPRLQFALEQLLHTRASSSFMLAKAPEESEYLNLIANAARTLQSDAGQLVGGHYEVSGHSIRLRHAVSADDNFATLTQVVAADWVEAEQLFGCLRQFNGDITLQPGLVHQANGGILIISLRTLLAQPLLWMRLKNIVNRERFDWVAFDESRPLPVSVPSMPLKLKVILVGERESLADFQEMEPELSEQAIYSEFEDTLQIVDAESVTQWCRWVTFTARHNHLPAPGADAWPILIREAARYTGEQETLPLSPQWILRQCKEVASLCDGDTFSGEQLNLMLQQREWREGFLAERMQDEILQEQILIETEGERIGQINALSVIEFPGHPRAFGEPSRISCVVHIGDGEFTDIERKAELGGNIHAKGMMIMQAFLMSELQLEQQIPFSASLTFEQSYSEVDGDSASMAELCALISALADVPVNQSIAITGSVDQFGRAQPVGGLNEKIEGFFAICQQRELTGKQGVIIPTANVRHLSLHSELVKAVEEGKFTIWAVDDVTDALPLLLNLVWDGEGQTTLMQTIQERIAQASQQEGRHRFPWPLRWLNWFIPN
# UniProt P71243: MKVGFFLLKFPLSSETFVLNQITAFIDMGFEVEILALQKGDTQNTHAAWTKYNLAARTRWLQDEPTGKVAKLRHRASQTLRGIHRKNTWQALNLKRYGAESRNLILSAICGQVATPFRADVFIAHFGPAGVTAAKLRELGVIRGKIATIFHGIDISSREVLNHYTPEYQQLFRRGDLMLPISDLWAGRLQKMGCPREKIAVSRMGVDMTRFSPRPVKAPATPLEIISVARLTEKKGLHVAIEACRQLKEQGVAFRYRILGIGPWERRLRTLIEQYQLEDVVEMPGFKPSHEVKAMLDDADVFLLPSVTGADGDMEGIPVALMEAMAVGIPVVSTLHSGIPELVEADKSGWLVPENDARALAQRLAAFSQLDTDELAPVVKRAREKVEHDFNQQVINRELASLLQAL
# UniProt P46144: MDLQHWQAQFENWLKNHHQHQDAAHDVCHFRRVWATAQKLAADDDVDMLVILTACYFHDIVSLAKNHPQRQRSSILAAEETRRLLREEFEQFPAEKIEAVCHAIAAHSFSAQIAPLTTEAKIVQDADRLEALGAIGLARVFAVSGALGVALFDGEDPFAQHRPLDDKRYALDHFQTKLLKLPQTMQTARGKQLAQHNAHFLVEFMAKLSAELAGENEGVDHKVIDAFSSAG
# UniProt P52598: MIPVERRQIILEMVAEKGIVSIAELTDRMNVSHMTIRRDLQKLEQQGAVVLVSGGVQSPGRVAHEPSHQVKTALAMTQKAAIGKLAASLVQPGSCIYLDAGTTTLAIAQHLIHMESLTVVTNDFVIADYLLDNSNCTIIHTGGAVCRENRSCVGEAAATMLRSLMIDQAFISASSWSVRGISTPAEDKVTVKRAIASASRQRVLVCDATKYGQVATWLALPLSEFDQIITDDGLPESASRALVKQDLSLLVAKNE
# UniProt P46118: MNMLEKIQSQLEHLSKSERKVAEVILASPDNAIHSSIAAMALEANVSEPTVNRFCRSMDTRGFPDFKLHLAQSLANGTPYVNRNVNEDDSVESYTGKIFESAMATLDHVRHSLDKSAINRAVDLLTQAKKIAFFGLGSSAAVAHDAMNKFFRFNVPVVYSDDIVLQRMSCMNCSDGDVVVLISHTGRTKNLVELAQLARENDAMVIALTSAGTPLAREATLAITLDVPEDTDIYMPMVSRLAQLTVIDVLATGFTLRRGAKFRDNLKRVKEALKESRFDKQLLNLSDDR
# UniProt P75792: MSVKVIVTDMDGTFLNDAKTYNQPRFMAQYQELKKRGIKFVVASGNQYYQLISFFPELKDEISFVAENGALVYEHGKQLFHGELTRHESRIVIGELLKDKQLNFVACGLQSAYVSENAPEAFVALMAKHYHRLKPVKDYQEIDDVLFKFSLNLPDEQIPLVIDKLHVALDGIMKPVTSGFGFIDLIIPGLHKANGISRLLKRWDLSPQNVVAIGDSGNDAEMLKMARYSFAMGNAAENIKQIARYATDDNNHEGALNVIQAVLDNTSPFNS
# UniProt P52045: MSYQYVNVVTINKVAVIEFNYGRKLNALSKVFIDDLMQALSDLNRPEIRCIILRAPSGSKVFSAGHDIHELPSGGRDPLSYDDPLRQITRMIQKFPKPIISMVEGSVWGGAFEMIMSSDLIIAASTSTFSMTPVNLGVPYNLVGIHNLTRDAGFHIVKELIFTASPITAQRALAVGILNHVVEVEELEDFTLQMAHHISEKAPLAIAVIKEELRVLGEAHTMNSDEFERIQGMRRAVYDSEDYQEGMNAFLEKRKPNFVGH
# UniProt P55734: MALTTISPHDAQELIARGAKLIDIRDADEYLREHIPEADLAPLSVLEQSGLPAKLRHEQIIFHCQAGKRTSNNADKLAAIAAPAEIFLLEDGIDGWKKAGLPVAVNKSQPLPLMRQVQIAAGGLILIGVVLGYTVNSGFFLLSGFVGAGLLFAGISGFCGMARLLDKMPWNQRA
# UniProt P52645: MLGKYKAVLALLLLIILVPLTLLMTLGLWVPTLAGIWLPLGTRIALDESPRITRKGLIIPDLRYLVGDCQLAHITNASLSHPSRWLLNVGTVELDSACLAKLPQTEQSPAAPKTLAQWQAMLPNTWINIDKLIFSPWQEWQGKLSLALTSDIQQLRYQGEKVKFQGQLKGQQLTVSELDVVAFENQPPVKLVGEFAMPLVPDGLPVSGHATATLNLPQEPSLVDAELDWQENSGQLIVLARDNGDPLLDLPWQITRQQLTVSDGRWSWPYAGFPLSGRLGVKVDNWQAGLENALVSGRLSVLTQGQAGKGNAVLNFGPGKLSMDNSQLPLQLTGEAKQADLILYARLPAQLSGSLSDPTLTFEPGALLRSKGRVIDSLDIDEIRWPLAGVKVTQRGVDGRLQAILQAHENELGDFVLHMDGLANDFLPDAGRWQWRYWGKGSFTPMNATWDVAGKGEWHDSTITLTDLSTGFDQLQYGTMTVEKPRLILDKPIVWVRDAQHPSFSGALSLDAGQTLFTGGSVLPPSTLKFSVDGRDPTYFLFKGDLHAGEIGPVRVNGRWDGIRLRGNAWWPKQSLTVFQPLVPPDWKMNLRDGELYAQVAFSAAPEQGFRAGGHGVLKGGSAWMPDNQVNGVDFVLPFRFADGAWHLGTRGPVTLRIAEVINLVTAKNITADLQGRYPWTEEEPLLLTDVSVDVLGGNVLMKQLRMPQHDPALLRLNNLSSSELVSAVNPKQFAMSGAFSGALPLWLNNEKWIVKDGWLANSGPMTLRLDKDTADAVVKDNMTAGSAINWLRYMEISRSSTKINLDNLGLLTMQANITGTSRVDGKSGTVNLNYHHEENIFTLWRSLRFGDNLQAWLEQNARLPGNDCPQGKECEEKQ
# UniProt P52073: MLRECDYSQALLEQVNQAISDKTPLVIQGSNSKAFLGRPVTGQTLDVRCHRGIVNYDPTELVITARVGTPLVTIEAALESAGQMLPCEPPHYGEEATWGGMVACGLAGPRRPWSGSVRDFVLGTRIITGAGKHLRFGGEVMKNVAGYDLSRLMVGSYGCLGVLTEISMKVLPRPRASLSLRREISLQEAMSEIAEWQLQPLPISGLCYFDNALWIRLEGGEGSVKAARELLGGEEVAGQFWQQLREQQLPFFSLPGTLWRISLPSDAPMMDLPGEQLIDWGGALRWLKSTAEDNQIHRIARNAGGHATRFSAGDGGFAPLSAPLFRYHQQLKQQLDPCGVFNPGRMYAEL
# UniProt P46474: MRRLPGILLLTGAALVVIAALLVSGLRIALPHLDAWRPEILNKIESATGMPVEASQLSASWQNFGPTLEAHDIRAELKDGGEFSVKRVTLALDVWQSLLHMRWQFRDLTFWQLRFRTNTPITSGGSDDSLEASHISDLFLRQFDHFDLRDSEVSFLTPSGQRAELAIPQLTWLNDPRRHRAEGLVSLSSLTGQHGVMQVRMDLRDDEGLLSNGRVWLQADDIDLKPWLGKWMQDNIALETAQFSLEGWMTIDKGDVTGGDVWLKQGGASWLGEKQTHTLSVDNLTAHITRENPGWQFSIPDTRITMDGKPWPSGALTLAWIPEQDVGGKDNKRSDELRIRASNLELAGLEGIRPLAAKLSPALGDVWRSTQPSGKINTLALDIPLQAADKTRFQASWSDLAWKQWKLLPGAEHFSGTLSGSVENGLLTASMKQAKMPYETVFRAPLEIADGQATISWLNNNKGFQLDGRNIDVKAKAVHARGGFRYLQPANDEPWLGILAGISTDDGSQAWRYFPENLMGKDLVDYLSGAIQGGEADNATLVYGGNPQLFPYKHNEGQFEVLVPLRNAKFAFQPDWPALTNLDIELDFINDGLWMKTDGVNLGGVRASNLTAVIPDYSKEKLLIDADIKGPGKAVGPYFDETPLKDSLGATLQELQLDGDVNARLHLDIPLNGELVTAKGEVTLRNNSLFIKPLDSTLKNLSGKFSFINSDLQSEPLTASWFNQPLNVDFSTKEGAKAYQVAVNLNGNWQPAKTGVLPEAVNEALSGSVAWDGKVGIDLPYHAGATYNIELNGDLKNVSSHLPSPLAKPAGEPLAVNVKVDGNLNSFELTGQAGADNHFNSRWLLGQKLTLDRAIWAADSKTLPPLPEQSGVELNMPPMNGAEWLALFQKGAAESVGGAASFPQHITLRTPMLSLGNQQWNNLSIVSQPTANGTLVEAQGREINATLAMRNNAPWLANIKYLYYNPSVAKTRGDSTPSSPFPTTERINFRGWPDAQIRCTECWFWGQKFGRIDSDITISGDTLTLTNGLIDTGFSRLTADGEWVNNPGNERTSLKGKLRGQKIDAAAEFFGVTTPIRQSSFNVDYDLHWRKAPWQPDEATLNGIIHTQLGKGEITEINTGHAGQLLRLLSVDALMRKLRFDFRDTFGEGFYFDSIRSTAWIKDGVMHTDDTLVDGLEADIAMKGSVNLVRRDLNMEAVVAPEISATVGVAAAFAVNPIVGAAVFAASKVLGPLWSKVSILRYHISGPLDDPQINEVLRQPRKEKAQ
# UniProt P64554: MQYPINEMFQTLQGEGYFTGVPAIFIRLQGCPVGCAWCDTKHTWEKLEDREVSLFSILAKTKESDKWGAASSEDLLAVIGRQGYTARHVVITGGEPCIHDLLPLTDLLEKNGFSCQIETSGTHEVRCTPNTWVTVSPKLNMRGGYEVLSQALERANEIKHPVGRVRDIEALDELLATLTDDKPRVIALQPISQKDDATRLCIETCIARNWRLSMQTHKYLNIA
# UniProt P75804: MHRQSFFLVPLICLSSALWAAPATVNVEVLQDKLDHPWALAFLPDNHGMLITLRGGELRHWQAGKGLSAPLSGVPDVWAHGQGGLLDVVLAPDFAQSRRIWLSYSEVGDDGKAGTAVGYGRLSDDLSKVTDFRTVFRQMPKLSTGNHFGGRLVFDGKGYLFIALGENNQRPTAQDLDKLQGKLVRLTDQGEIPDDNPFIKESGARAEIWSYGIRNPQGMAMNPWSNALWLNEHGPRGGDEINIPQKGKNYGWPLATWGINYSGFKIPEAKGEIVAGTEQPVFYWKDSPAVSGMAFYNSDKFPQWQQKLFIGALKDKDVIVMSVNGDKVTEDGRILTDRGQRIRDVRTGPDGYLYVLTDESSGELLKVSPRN
# This is one part of the list. Most entries show no effect beyond the scatter of the controls.
# Compound: CC1(C)S[C@@H]2[C@H](NC(=O)[C@H](N)c3ccccc3)C(=O)N2[C@H]1C(=O)O [ampicillin]
# Assay: log2 fold change of tryptic peptide abundance, ligand vs vehicle (limited proteolysis) (log2 ratio); higher = more trypsin-susceptible (destabilized)
# Settings: ligand concentration: 10 uM; sample: E. coli crude lysate
row,Target,log2 fold change
1,"UniProt P52127 (peptide sequence: QRVEDDQSR, peptide start residue: 240)",0.973
2,"UniProt P64474 (peptide sequence: MSDGEKQEVLR, peptide start residue: 42)",-0.136
3,"UniProt P75830 (peptide sequence: NDTDVEIVK, peptide start residue: 344)",0.223
4,"UniProt P64602 (peptide sequence: LYNLPADVLPR, peptide start residue: 87)",-0.214
5,"UniProt P75867 (peptide sequence: WVTFTAR, peptide start residue: 250)",-0.242
6,"UniProt P71243 (peptide sequence: IATIFHGIDISSR, peptide start residue: 146)",-0.28
7,"UniProt P54901 (peptide sequence: VPDPLRDAHQR, peptide start residue: 220)",-0.362
8,"UniProt P46144 (peptide sequence: LLREEFEQFPAEK, peptide start residue: 84)",-0.53
9,"UniProt P52598 (peptide sequence: VAHEPSHQVK, peptide start residue: 62)",-0.171
10,"UniProt P67662 (peptide sequence: FVTNDPMTLVR, peptide start residue: 218)",-0.669
11,"UniProt P46118 (peptide sequence: KIAFFGLGSSAAVAHDAMNK, peptide start residue: 130)",0.413
12,"UniProt P66948 (peptide sequence: FKPYTKM, peptide start residue: 481)",-0.168
13,"UniProt P75792 (peptide sequence: FMAQYQELK, peptide start residue: 26)",-0.291
14,"UniProt P75678 (peptide sequence: EATSPVVSQLHPSFR, peptide start residue: 217)",-0.213
15,"UniProt P52062 (peptide sequence: PGYQCQHNLNYWR, peptide start residue: 244)",0.472
16,"UniProt P63235 (peptide sequence: GHFFLHPR, peptide start residue: 490)",0.342

# An excerpt of the results above:
row,Target,log2 fold change
5,"UniProt P75867 (peptide sequence: WVTFTAR, peptide start residue: 250)",-0.242
6,"UniProt P71243 (peptide sequence: IATIFHGIDISSR, peptide start residue: 146)",-0.28
7,"UniProt P54901 (peptide sequence: VPDPLRDAHQR, peptide start residue: 220)",-0.362

# The list goes on.

row,Target,log2 fold change
1,"UniProt P52045 (peptide sequence: VLGEAHTMNSDEFER, peptide start residue: 215)",-0.118
2,"UniProt P75843 (peptide sequence: ASLEDIPATISR, peptide start residue: 29)",-0.353
3,"UniProt P52037 (peptide sequence: VKSNIPMQR, peptide start residue: 206)",0.146
4,"UniProt P52007 (peptide sequence: RLGLNITPLTADHISLR, peptide start residue: 30)",0.643
5,"UniProt P55734 (peptide sequence: DADEYLR, peptide start residue: 26)",-0.476
6,"UniProt P52645 (peptide sequence: LSVLTQGQAGK, peptide start residue: 299)",-0.114
7,"UniProt P52073 (peptide sequence: LEGGEGSVK, peptide start residue: 217)",-0.246
8,"UniProt P67910 (peptide sequence: KGQIEYIPFPDKLK, peptide start residue: 256)",0.12
9,"UniProt P46474 (peptide sequence: AIWAADSK, peptide start residue: 854)",-0.211
10,"UniProt P75839 (peptide sequence: YKVVPESADYACIR, peptide start residue: 184)",0.289
11,"UniProt P75824 (peptide sequence: ELLAGVPDLASR, peptide start residue: 185)",-0.155
12,"UniProt P75828 (peptide sequence: QGFSDVFHR, peptide start residue: 480)",-0.503
13,"UniProt P75691 (peptide sequence: VGVVGIGGLGHMGIK, peptide start residue: 178)",-0.32
14,"UniProt P64554 (peptide sequence: LSMQTHK, peptide start residue: 212)",0.52
15,"UniProt P56262 (peptide sequence: ITWLYAAHNPQLK, peptide start residue: 152)",-0.324
16,"UniProt P75804 (peptide sequence: DVIVMSVNGDK, peptide start residue: 317)",0.136
